Measured values as given in doi:10.1101/2025.01.17.633582.
These are yes or no findings as the source states them, for the method shown. Binding seen in cells or lysates may run through a third protein. Some binding calls cover weakened binding; strength is not graded here. For some assays here: Sequences can lack the tags named with a protein.

Protein sequences, listed by entry. Tags and fused reporters are not part of them.
UniProt P50549, whole entry: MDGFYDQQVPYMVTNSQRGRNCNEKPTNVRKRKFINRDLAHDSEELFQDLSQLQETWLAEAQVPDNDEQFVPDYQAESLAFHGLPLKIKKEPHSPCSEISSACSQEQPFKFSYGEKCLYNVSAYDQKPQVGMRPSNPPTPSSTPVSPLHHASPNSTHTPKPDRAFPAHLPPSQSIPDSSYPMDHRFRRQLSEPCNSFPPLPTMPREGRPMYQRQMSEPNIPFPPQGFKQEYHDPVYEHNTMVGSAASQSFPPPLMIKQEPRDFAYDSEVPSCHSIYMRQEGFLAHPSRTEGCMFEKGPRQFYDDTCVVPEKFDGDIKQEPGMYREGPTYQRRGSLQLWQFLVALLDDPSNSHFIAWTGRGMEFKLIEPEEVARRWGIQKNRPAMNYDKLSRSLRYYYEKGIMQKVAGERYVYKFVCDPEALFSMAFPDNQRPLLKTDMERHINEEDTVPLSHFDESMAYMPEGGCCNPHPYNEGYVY
UniProt P43268, whole entry: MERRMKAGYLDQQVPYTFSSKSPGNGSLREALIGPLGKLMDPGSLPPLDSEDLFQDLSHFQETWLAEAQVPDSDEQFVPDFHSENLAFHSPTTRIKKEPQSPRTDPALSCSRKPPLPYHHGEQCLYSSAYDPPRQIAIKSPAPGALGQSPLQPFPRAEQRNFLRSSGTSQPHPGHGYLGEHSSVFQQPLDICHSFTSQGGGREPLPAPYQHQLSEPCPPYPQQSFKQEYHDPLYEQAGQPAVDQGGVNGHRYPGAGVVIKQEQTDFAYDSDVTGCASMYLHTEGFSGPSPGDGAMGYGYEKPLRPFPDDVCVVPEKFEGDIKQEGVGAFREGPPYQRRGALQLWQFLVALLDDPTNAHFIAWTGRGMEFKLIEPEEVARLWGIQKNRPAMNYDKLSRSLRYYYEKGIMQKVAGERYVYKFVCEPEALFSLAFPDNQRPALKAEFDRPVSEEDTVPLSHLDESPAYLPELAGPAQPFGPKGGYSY
UniProt P41161, whole entry: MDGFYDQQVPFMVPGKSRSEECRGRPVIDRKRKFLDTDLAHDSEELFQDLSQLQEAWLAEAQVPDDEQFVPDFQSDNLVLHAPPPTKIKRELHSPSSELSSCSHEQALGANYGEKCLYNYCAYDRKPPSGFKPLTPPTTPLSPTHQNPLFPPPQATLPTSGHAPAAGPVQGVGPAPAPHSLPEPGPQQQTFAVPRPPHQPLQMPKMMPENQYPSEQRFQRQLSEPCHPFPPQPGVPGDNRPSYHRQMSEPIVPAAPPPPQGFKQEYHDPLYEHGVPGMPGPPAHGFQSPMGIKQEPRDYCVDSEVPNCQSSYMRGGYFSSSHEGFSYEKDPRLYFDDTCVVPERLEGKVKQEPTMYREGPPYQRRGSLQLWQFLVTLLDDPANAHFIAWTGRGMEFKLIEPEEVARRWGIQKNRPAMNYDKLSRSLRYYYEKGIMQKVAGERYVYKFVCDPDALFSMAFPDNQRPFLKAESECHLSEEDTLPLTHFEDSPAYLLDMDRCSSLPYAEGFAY
UniProt P04150, whole entry: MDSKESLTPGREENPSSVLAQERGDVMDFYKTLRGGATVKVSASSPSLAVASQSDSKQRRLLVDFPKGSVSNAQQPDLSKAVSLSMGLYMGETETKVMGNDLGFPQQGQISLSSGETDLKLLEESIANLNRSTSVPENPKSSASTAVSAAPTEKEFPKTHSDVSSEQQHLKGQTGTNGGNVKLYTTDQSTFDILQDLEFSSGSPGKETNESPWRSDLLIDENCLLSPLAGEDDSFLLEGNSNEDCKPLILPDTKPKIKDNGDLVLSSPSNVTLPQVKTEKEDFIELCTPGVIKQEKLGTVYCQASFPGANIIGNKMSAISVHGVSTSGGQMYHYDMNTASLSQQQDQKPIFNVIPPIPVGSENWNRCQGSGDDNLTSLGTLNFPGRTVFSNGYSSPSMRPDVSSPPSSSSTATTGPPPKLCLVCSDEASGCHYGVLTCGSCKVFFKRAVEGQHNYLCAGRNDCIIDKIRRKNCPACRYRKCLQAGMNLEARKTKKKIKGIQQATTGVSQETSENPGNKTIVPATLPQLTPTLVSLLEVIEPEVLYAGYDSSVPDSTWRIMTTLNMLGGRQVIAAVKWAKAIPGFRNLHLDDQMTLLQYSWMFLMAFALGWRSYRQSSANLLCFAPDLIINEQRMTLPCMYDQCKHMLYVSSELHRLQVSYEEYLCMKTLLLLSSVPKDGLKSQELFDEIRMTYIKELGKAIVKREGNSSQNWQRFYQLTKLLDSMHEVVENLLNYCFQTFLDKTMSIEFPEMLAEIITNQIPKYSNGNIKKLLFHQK

Experiments:
Gluc1-ETV1 = Gluc1-ETV1 (UniProt P50549); experiment: split reporter
[1] = biological target: T1, Gluc1-ERG (ERG fused to the amino-terminal fragment of Gaussia luciferase) (UniProt P11308); experiment: split reporter
T1 sequence: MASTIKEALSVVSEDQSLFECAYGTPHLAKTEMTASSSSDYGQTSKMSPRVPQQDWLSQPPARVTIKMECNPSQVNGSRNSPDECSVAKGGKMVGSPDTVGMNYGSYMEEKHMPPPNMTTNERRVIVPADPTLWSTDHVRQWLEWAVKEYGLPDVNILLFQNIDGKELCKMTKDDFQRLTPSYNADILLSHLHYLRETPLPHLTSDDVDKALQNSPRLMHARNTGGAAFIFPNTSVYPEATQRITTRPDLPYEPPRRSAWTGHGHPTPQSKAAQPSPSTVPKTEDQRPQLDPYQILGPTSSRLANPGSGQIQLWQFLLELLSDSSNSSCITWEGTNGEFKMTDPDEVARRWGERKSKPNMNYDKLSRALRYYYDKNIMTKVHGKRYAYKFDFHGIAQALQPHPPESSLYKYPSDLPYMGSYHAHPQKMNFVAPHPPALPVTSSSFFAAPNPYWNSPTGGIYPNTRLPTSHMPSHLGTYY

Gluc1-ETV4 = Gluc1-ETV4 (UniProt P43268); experiment: split reporter
Gluc1-ETV5 = Gluc1-ETV5 (UniProt P41161); experiment: split reporter
[2] = biological target: T2, full-length HA-ERG (HA-tagged ERG-WT) (UniProt P11308); experiment: co-IP
T2 sequence: T1 sequence

[3] = biological target: T3, ERG ectopically expressed in HEK293T cells (plasmid encoding ERG) (UniProt P11308); experiment: co-IP
T3 sequence: T1 sequence

[4] = biological target: ETV4, endogenous in PC3 cells (human (endogenous in PC3)) (UniProt P43268); experiment: co-IP

Measured: binding

GR-Gluc2 (full-length glucocorticoid receptor fused to the carboxyl-terminal fragment of Gaussia luciferase) (from UniProt P04150 1-777)
not listed: [3] | [4]
binds: all other assays above

endogenous glucocorticoid receptor (GR) (from UniProt P04150 1-777)
binds: [3] | [2] | [4]
